Paper PMC8384837
Numbering of substitutions follows the chain as printed. The list shows a part of the results. For some of these results: At the low end of the ranking, values are background and their order means little. For some of these results: The exact form of the protein is not confirmed.

How the values were obtained:
Conditions in all cases: yeast three-hybrid, YBZ-1, SC-Leu-His + 0.5 mM 3-AT, 4 days
[1] = target: T1, PUM1 PUF domain R2-VFQ R3-THE R4-TFR N899V + Y900F + C935T + R936H + Q939E + N971T + H972F + Q975R (UniProt Q14671)
T1 sequence: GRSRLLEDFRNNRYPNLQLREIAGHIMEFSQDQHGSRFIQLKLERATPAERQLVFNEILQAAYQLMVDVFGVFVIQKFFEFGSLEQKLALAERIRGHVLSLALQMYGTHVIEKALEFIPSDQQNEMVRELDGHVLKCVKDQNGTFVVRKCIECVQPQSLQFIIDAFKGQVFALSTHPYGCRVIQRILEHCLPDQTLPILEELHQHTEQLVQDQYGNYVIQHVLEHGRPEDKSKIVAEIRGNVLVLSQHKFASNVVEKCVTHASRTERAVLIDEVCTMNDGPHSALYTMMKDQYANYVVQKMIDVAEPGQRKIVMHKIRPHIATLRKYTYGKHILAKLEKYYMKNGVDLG

[2] = target: T2, PUM1 PUF domain R3-THE R4-TFR C935T + R936H + Q939E + N971T + H972F + Q975R (UniProt Q14671)
T2 sequence: T1 sequence with V72N, F73Y

[3] = target: T3, PUM1 PUF domain R5-PHQ R6-SWD C1007P + R1008H + N1043S + Y1044W + Q1047D (UniProt Q14671)
T3 sequence: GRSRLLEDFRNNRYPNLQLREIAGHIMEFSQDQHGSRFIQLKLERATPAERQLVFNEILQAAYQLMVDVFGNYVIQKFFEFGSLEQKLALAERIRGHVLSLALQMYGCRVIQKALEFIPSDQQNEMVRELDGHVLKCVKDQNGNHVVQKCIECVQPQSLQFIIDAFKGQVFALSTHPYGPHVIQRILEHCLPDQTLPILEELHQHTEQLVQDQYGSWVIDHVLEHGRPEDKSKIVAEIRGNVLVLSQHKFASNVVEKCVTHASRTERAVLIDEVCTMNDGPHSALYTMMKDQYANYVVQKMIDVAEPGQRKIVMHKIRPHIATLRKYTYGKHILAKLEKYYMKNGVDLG

[4] = target: T4, PUM1 PUF domain R3-THE R4-TFR R7-NPG C935T + R936H + Q939E + N971T + H972F + Q975R + S1079N + N1080P + E1083G (Homo sapiens) (UniProt Q14671)
T4 sequence: T1 sequence with V72N, F73Y, S252N, N253P, E256G

[5] = target: T5, PUM1 PUF domain R3-THE R4-TFR R7-NPG C935T + R936H + Q939E + N971T + H972F + Q975R + S1079N + N1080P + E1083G (UniProt Q14671)
T5 sequence: T1 sequence with V72N, F73Y, S252N, N253P, E256G

[6] = target: T6, PUM1 PUF domain R6-SWD R7-NPG N1043S + Y1044W + Q1047D + S1079N + N1080P + E1083G (Homo sapiens) (UniProt Q14671)
T6 sequence: T3 sequence with P180C, H181R, S252N, N253P, E256G

| Sequence | binding signal (log2 enrichment (interaction score)) [1] | binding signal (log2 enrichment (interaction score)) [2] | binding signal (log2 enrichment (interaction score)) [3] | binding signal (log2 enrichment (interaction score)) [4] | binding signal (log2 enrichment (interaction score)) [5] | binding signal (log2 enrichment (interaction score)) [6] |
| --- | --- | --- | --- | --- | --- | --- |
| GGCUAGAACUAGUGGAUCCCCCGGCGCCCGGCGGCUCGAGCCCGGGUAAGUCUAAGACGUCUGCAUGCCGCCGGGCGCCAUGCCUGCAGGUCGACUCUAGAAAACAUG | -4.6 | < -7.89 |  |  |  |  |
| GGCUAGAACUAGUGGAUCCCCCGGCGCCCGGCGGCUCGAGCCCGGGUAAGUUGACGGGGUCUGCAUGCCGCCGGGCGCCAUGCCUGCAGGUCGACUCUAGAAAACAUG | -5.02 | -6.97 |  |  |  |  |
| GGCUAGAACUAGUGGAUCCCCCGGCGCCCGGCGGCUCGAGCCCGGGUAAGUCUAAACAGUCUGCAUGCCGCCGGGCGCCAUGCCUGCAGGUCGACUCUAGAAAACAUG | -5.71 | < -6.52 |  |  |  |  |
| GGCUAGAACUAGUGGAUCCCCCGGCGCCCGGCGGCUCGAGCCCGGGUAAGUAUAGUUAGUCUGCAUGCCGCCGGGCGCCAUGCCUGCAGGUCGACUCUAGAAAACAUG | -5.69 | -6.23 | < -7.43 |  |  |  |
| GGCUAGAACUAGUGGAUCCCCCGGCGCCCGGCGGCUCGAGCCCGGGUAAGUGGCAAUAGUCUGCAUGCCGCCGGGCGCCAUGCCUGCAGGUCGACUCUAGAAAACAUG | < -5.05 | -7.07 | -4.69 |  |  |  |
| GGCUAGAACUAGUGGAUCCCCCGGCGCCCGGCGGCUCGAGCCCGGGUAAGUGGAGCGCGUCUGCAUGCCGCCGGGCGCCAUGCCUGCAGGUCGACUCUAGAAAACAUG | -5.73 | -7.32 | < -7.09 |  |  |  |
| GGCUAGAACUAGUGGAUCCCCCGGCGCCCGGCGGCUCGAGCCCGGGUAAGUCCGGGUAGUCUGCAUGCCGCCGGGCGCCAUGCCUGCAGGUCGACUCUAGAAAACAUG | -5.33 | < -7.57 |  | < -1.23 |  |  |
| GGCUAGAACUAGUGGAUCCCCCGGCGCCCGGCGGCUCGAGCCCGGGUAAGUUGAAGGAGUCUGCAUGCCGCCGGGCGCCAUGCCUGCAGGUCGACUCUAGAAAACAUG | -5.63 | -7.27 | -8.7 | -1.6 |  |  |
| GGCUAGAACUAGUGGAUCCCCCGGCGCCCGGCGGCUCGAGCCCGGGUAAGUUGCAGUAGUCUGCAUGCCGCCGGGCGCCAUGCCUGCAGGUCGACUCUAGAAAACAUG | -4.93 | -6.68 | -8.05 | < -0.97 |  |  |
| GGCUAGAACUAGUGGAUCCCCCGGCGCCCGGCGGCUCGAGCCCGGGUAAGUUAAAGGAGUCUGCAUGCCGCCGGGCGCCAUGCCUGCAGGUCGACUCUAGAAAACAUG | -5.61 | -7.55 | -6.84 |  |  |  |
| GGCUAGAACUAGUGGAUCCCCCGGCGCCCGGCGGCUCGAGCCCGGGUAAGUUGUAGUAGUCUGCAUGCCGCCGGGCGCCAUGCCUGCAGGUCGACUCUAGAAAACAUG | -5.22 | -7.21 | < -7.01 | < -1.94 |  |  |
| GGCUAGAACUAGUGGAUCCCCCGGCGCCCGGCGGCUCGAGCCCGGGUAAGUUAACAUCGUCUGCAUGCCGCCGGGCGCCAUGCCUGCAGGUCGACUCUAGAAAACAUG | -4.93 | < -7.21 |  |  | -2.04 | -1.24 |
| GGCUAGAACUAGUGGAUCCCCCGGCGCCCGGCGGCUCGAGCCCGGGUAAGUGUAUAAAGUCUGCAUGCCGCCGGGCGCCAUGCCUGCAGGUCGACUCUAGAAAACAUG | -5.39 | < -6.79 | -6.28 |  |  |  |
| GGCUAGAACUAGUGGAUCCCCCGGCGCCCGGCGGCUCGAGCCCGGGUAAGGGGGAGUAGUCUGCAUGCCGCCGGGCGCCAUGCCUGCAGGUCGACUCUAGAAAACAUG | < -6.69 | -7.99 | < -8.73 |  | -2.79 |  |
| GGCUAGAACUAGUGGAUCCCCCGGCGCCCGGCGGCUCGAGCCCGGGUAAGAUCACGAAGUCUGCAUGCCGCCGGGCGCCAUGCCUGCAGGUCGACUCUAGAAAACAUG | -6.01 | -6.73 |  | -0.77 |  |  |
| GGCUAGAACUAGUGGAUCCCCCGGCGCCCGGCGGCUCGAGCCCGGGUAAGUUAACGCAGUCUGCAUGCCGCCGGGCGCCAUGCCUGCAGGUCGACUCUAGAAAACAUG | -5.09 | -6.74 |  | < -0.91 |  |  |
| GGCUAGAACUAGUGGAUCCCCCGGCGCCCGGCGGCUCGAGCCCGGGUAAGUCUAAGGUGUCUGCAUGCCGCCGGGCGCCAUGCCUGCAGGUCGACUCUAGAAAACAUG | -4.65 | < -6.83 |  | < -1.01 |  |  |

| Sequence | binding signal (log2 enrichment (interaction score)) [1] | binding signal (log2 enrichment (interaction score)) [2] | binding signal (log2 enrichment (interaction score)) [3] | binding signal (log2 enrichment (interaction score)) [4] | binding signal (log2 enrichment (interaction score)) [5] | binding signal (log2 enrichment (interaction score)) [6] |
| --- | --- | --- | --- | --- | --- | --- |
| GGCUAGAACUAGUGGAUCCCCCGGCGCCCGGCGGCUCGAGCCCGGGUAAGAAUUCAUAGUCUGCAUGCCGCCGGGCGCCAUGCCUGCAGGUCGACUCUAGAAAACAUG | -5.71 | -7.42 | -7.95 |  |  |  |
| GGCUAGAACUAGUGGAUCCCCCGGCGCCCGGCGGCUCGAGCCCGGGUAAGUCUAGAUAGUCUGCAUGCCGCCGGGCGCCAUGCCUGCAGGUCGACUCUAGAAAACAUG | -6.18 | -7.25 | < -7.56 |  |  |  |
| GGCUAGAACUAGUGGAUCCCCCGGCGCCCGGCGGCUCGAGCCCGGGUAAGUGUAUUCAGUCUGCAUGCCGCCGGGCGCCAUGCCUGCAGGUCGACUCUAGAAAACAUG | -6.36 | -6.95 | -6.94 |  | -2.77 |  |
| GGCUAGAACUAGUGGAUCCCCCGGCGCCCGGCGGCUCGAGCCCGGGUAAGUUUUCAUAGUCUGCAUGCCGCCGGGCGCCAUGCCUGCAGGUCGACUCUAGAAAACAUG | -5.71 | -7.61 | < -7.22 | < -0.94 |  |  |
| GGCUAGAACUAGUGGAUCCCCCGGCGCCCGGCGGCUCGAGCCCGGGUAAGUGGAAGACGUCUGCAUGCCGCCGGGCGCCAUGCCUGCAGGUCGACUCUAGAAAACAUG | -5.33 | < -8.64 | < -8.59 | -1.17 |  |  |
| GGCUAGAACUAGUGGAUCCCCCGGCGCCCGGCGGCUCGAGCCCGGGUAAGUAGAAGCCGUCUGCAUGCCGCCGGGCGCCAUGCCUGCAGGUCGACUCUAGAAAACAUG | -5 | -6.09 | -7.16 |  |  |  |
| GGCUAGAACUAGUGGAUCCCCCGGCGCCCGGCGGCUCGAGCCCGGGUAAGGGUAAGUAGUCUGCAUGCCGCCGGGCGCCAUGCCUGCAGGUCGACUCUAGAAAACAUG | -4.58 | -7.55 | -7.42 |  | < -2.55 |  |
| GGCUAGAACUAGUGGAUCCCCCGGCGCCCGGCGGCUCGAGCCCGGGUAAGAGUUAUAAGUCUGCAUGCCGCCGGGCGCCAUGCCUGCAGGUCGACUCUAGAAAACAUG | -5.65 | -6.79 |  |  | -2.75 | -0.32 |
| GGCUAGAACUAGUGGAUCCCCCGGCGCCCGGCGGCUCGAGCCCGGGUAAGUAGAAAUAGUCUGCAUGCCGCCGGGCGCCAUGCCUGCAGGUCGACUCUAGAAAACAUG | -5.97 | -7.11 | -2.76 | -1.73 |  |  |
| GGCUAGAACUAGUGGAUCCCCCGGCGCCCGGCGGCUCGAGCCCGGGUAAGCCGAAUUAGUCUGCAUGCCGCCGGGCGCCAUGCCUGCAGGUCGACUCUAGAAAACAUG | -5.73 | < -7.25 | -7.02 | -0.15 |  |  |
| GGCUAGAACUAGUGGAUCCCCCGGCGCCCGGCGGCUCGAGCCCGGGUAAGUGGCCGAAGUCUGCAUGCCGCCGGGCGCCAUGCCUGCAGGUCGACUCUAGAAAACAUG | -5.66 | -6.1 | < -7.83 |  |  |  |
| GGCUAGAACUAGUGGAUCCCCCGGCGCCCGGCGGCUCGAGCCCGGGUAAGUUGAUGUAGUCUGCAUGCCGCCGGGCGCCAUGCCUGCAGGUCGACUCUAGAAAACAUG | -4.5 | -6.9 | -8.47 |  | -2.68 |  |
| GGCUAGAACUAGUGGAUCCCCCGGCGCCCGGCGGCUCGAGCCCGGGUAAGAUAACGACGUCUGCAUGCCGCCGGGCGCCAUGCCUGCAGGUCGACUCUAGAAAACAUG | -5.55 | -5.15 |  | < -1.76 |  |  |
| GGCUAGAACUAGUGGAUCCCCCGGCGCCCGGCGGCUCGAGCCCGGGUAAGUGUUCGCUGUCUGCAUGCCGCCGGGCGCCAUGCCUGCAGGUCGACUCUAGAAAACAUG | -5.85 | -6.46 |  |  | -2.7 |  |
| GGCUAGAACUAGUGGAUCCCCCGGCGCCCGGCGGCUCGAGCCCGGGUAAGUGGAAGUUGUCUGCAUGCCGCCGGGCGCCAUGCCUGCAGGUCGACUCUAGAAAACAUG | -6.66 | -5.72 | -7.68 |  |  |  |
| GGCUAGAACUAGUGGAUCCCCCGGCGCCCGGCGGCUCGAGCCCGGGUAAGAAGACCAAGUCUGCAUGCCGCCGGGCGCCAUGCCUGCAGGUCGACUCUAGAAAACAUG | -5.76 | -5.73 | < -7.13 |  |  |  |

Whole records as entered above.
GGCUAGAACUAGUGGAUCCCCCGGCGCCCGGCGGCUCGAGCCCGGGUAAGUGGCCGAAGUCUGCAUGCCGCCGGGCGCCAUGCCUGCAGGUCGACUCUAGAAAACAUG in the list: binding signal (log2 enrichment (interaction score)) [1] = -5.66; binding signal (log2 enrichment (interaction score)) [2] = -6.1; binding signal (log2 enrichment (interaction score)) [3] = < -7.83
GGCUAGAACUAGUGGAUCCCCCGGCGCCCGGCGGCUCGAGCCCGGGUAAGUUUUCAUAGUCUGCAUGCCGCCGGGCGCCAUGCCUGCAGGUCGACUCUAGAAAACAUG in the list: binding signal (log2 enrichment (interaction score)) [1] = -5.71; binding signal (log2 enrichment (interaction score)) [2] = -7.61; binding signal (log2 enrichment (interaction score)) [3] = < -7.22; binding signal (log2 enrichment (interaction score)) [4] = < -0.94
